PubChem BioAssay AID266 (DTP/NCI, 2004)
The list does not hold the whole screen: it gathers some chemical classes. Not every dose and run of a compound is shown. T/C: endpoint of the treated group in % of that of the vehicle group. Schedule codes are those of the source, taken here to give the interval after Q, in days (D) or hours (H), and the number of doses after X.

Tested on: Nude mice, LX-1 lung xenograft intrarenal, tumor weight T/C
Assay: NCI In Vivo Anticancer Drug Screen. Data for tumor model Human Lung LX-1 Xenograft (intrarenal inoculation) in NU/NU BALB/C (nude) mice
Conditions: T/C endpoint: mean tumor weight change, schedule: Q01DX010 (sc), vehicle: Klucel (hydroxypropylcellulose) (HPC), evaluated on day 11, higher T/C = larger tumour
Method: The antitumor activity of compounds was measured in mice bearing transplantable tumors. Survival or tumor size were measured and the results are expressed as the measurement made in the treated group (T) divided by the measurement made in the vehicle treated control group (C). The tumor model used in this assay is Human Lung LX-1 Xenograft (intrarenal inoculation) in NU/NU BALB/C (nude) mice

## CC1=CC(=O)C(N(CCCl)CCCl)=CC1=O
dose: 0.75 mg/kg/injection
  T/C: 95 % of control
dose: 1.5 mg/kg/injection
  T/C: 125 % of control
dose: 3.0 mg/kg/injection
  T/C: 37 % of control
